These are yes or no findings as the source states them, for the method shown. Binding seen in cells or lysates may run through a third protein. Some results given as binding are weak or reduced against the parent protein; the word gives no strength.
Key:
[1] = molecular target: Flag-tagged β-transducin repeat containing protein (β-TrCP), from pCMV-Flag-β-TrCP2 (UniProt Q9UKB1); assay: co-IP; 293 cells co-transfected with pFlag-β-TrCP and pN-NSP1 or pO-NSP1; 10 µM MG132 added 40 h post-transfection for eight hours; lysate precipitated with anti-FLAG M2 Agarose Affinity Resin; blots with anti-Flag and anti-myc
[2] = molecular target: Flag-tagged β-transducin repeat containing protein (β-TrCP), from pCMV-Flag-β-TrCP2 (UniProt Q9UKB1); assay: co-IP; HEK293 cells transfected with pCMV-Flag-β-TrCP2, infected with three pfu/cell of OSU, harvested eight hpi in 50 mM Tris-HCl pH 7.5, 150 mM NaCl, 1% Triton X-100, 1 mM EDTA; anti-FLAG M2-Agarose; blots with anti-Flag and anti-OSU NSP1

The chains behind the UniProt entries cited, without tags or fusion partners.
UniProt Q9UKB1: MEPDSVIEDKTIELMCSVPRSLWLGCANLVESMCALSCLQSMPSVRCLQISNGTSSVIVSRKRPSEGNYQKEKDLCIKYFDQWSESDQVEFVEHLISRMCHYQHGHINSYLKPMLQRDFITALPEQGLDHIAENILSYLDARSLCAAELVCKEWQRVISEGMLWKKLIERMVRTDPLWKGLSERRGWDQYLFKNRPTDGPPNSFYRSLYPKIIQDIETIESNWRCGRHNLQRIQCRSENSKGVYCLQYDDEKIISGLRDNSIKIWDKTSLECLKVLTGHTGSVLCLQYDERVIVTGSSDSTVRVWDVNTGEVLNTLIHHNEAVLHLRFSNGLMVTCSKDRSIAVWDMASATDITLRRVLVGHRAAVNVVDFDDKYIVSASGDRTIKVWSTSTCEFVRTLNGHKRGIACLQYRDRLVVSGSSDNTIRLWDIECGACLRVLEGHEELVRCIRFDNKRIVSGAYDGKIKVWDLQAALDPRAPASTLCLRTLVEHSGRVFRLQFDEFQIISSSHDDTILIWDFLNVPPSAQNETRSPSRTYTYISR
UniProt Q84940: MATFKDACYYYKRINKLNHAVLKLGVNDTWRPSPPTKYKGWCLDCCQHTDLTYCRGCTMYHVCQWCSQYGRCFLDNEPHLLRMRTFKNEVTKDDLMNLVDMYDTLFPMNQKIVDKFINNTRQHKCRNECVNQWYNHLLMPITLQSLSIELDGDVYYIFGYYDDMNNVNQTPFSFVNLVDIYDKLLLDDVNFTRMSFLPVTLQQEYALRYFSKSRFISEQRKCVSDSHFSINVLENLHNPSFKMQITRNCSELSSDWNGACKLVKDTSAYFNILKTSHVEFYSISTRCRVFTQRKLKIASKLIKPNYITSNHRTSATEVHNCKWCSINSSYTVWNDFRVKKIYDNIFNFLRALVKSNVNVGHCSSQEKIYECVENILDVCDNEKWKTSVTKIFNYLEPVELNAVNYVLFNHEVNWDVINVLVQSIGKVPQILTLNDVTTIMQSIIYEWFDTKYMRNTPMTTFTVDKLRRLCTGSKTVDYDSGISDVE

“OSU NSP1 (rotavirus nonstructural protein NSP1 of porcine strain OSU), myc-tagged, from pO-NSP1 (from UniProt Q84940 1-486)” was tested. Which binding [1] did it give?
The binding was “binds”.

“NSP1 made in OSU infected cells (porcine rotavirus strain OSU) (from UniProt Q84940 1-486)” was tested. Which binding [2] did it give?
The binding was “binds”.

— paper PMC2627925
